These are yes or no findings as the source states them, for the method shown. In cells and extracts the contact can be indirect. A yes stands for co-enrichment or nearness to the bait. Other partners may have been found.
Target: Ago2-Flag (UniProt Q9UKV8)
Test: immunoprecipitation of Ago-1 or Ago-2 from HEK 293 lysates, mass spectrometry

By UniProt entry, the sequences of proteins in these tests, tags left out. Residues count along the entry.
UniProt Q9UKV8: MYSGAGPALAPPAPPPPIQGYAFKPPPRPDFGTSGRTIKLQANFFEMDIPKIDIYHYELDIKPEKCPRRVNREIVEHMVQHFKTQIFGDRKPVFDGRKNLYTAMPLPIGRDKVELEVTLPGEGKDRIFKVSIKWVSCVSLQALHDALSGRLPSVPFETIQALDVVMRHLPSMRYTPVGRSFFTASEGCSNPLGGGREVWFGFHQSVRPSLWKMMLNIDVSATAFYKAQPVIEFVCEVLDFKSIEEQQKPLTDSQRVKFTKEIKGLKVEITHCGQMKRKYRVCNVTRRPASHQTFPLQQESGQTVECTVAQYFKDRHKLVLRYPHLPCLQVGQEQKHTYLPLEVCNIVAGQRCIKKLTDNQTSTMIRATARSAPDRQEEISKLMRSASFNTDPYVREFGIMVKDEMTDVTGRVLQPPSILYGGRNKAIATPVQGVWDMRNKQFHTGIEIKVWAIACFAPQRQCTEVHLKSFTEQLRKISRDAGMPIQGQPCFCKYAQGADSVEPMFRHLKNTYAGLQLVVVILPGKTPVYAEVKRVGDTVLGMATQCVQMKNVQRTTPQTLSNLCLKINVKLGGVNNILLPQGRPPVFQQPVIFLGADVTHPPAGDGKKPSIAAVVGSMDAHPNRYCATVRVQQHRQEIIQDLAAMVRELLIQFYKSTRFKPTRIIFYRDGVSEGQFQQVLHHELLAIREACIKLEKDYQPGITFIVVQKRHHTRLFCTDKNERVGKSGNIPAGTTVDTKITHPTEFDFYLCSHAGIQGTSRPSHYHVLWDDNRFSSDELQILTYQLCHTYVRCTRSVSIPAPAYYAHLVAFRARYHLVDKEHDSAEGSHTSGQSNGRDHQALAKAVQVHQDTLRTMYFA
UniProt P67809, residues 2-324: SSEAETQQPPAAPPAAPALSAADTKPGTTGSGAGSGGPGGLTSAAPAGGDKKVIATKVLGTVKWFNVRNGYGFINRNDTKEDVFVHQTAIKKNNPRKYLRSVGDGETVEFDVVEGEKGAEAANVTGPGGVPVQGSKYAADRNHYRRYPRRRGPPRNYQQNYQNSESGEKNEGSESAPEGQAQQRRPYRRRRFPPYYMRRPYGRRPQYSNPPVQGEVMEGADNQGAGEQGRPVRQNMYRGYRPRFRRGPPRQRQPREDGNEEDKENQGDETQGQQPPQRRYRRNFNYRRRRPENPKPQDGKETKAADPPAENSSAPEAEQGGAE

binding: binds
Substance: YB-1 (from UniProt P67809 2-324)
